From PubChem BioAssay AID743266 (National Center for Advancing Translational Sciences (NCATS), 2014)
Screen size: about 410,000 compounds; about 310 (0.076%) were called active. Inconclusive results, whose numbers are uncertain, are shown with a selection of clear calls. Calls follow the shape of the dose curve; as a rule, active = well fitted activation curve with a large enough effect; inconclusive = small, poorly fitted or top-dose-only effect, or another doubt; inactive = no such curve, though single readings can be large or run the other way. Potencies beside an inconclusive call are fits to weak or partial responses and may not hold up. Residues, ends and D or L forms follow the SMILES beside them. *: point of attachment. Bz = O=C(c1ccccc1)*

Chains of the proteins cited; added tags and fusions are not shown. Lines headed by an entry give the natural chain unless they say otherwise; changes in a name come on top.
UniProt Q03431: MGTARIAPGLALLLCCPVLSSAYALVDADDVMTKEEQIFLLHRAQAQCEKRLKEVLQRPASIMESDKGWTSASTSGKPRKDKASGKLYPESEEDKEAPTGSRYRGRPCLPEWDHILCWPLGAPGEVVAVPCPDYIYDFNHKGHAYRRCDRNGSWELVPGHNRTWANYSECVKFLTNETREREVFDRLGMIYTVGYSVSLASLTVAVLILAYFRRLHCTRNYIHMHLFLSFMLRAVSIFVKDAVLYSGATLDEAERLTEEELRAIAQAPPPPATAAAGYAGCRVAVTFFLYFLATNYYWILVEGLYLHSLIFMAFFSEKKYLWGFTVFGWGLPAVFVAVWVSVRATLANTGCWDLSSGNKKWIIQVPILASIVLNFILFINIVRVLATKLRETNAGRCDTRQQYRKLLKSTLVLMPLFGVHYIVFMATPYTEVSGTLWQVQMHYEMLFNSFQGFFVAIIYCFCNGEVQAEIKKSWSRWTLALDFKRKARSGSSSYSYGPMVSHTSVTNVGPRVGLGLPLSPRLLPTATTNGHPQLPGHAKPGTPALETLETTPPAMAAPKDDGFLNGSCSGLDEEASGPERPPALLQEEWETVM

What follows are molecules tested against Parathyroid hormone/parathyroid hormone-related peptide receptor (Homo sapiens) (UniProt Q03431) (assay: qHTS for PTHR1 Agonists: Primary Screen). Settings: HEK293 GP2 PTHR1 cells, GloSensor cAMP luminescence, 1 h; activation: at 115 µM (top of the series) unless noted; series mostly up to 115 µM.
Procedure, shortened: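 HEK-293-derived GP2 cells expressing PTHR1 and a GloSensor cAMP reporter, 3,000/well, plated overnight, given luciferin plus IBMX (each 0.5 mM as added) for 1 h at 37 °C, then compound for 1 h at 37 °C. Luminescence was read after 15 min at room temperature.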
Also: nearly all actives have a fitted effect of over 55% in size.
Potency is read from the fitted curve at half-maximal effect.

| SMILES | Potency | activation |
| --- | --- | --- |
| CC1=C(C(=O)Nc2ccc(C)cc2C)C(c2cccs2)n2nc(SCc3cccc(C)c3)nc2N1 (centres undefined) | inconclusive: 8.91 µM [activator, partial curve, poor fit] | – |
| CNC(=O)CSc1cn(CC(=O)N2CCCCCC2)c2ccccc12 | – | inconclusive: 32% [activator] |
| Cc1ccc2ncnc(Nc3cccc(C(=O)O)c3)c2c1 | inconclusive: 28.2 µM [activator, partial curve, poor fit] | – |
| Cc1ccc(NC(=O)CCc2nnc3ccc(NCc4ccco4)nn23)nc1 | inconclusive: 158 µM [activator, single point] | – |
| COc1ccc(OC)c(NC(=O)CC(Cc2ccccc2OC)C(=O)O)c1 (centres undefined) | – | inconclusive: 87.5% [activator] [at 57.5 µM] |
| COc1ccccc1Nc1nc(N)nc(CN2CCC(Cc3ccccc3)CC2)n1 | inactive | – |
| COc1cc(NC(=O)C2CCN(C(=O)c3sc4nc[nH]c(=O)c4c3C)CC2)cc(OC)c1OC | inconclusive: 44.7 µM [activator, partial curve, poor fit] | – |
| Cc1cc(NC(=O)CSc2nc(C)c(C)n2CC(C)C)no1 | – | inconclusive: 32.4% [activator] |
| CCCOC1CCCN(C(=O)CCCn2nnnc2CN2CCOCC2)C1 (centres undefined) | inconclusive: 7.08 µM [activator, partial curve, poor fit] | – |
| Cc1cc2c(OCC(O)CNCc3ccco3)cccc2[nH]1 (centres undefined) | inconclusive: 28.2 µM [activator, partial curve, poor fit] | – |
| O=C(NC(=S)Nc1ccc(F)cc1)c1ccc2c(c1)OCCO2 | inactive | – |
| Clc1ccc(Br)c(-c2nc3ccccc3[nH]2)c1 | inactive | – |
| CC(C)Oc1ccc(C2CC(=O)N(Nc3ccc([N+](=O)[O-])cc3[N+](=O)[O-])C2=O)cc1 (centres undefined) | inactive | – |
| Cc1ccc(C(C)C)c(OCc2nn(CC(=O)c3ccc(OC(F)F)cc3)c3[n+]2CCCCC3)c1 | inactive | – |
| CCCN1CCN(c2nnc(-n3cccc3C(=O)Nc3cc(Cl)ccc3C)s2)CC1 | inconclusive: 0.965 µM [activator, full curve, poor fit] | – |
| O=C(NC1CCCCC1)N1CCN(C2CCCCC2)CC1 | – | inconclusive: 35.8% [activator] |
| Cc1onc(-c2c(Cl)cccc2Cl)c1C(=O)N1C(C)CCCC1C (centres undefined) | – | inconclusive: -15.4% [activator] |
| O=C(NC1CCCCC1)N1CCN(C(c2ccccc2)c2ccccc2)CC1 | inconclusive: 44.7 µM [activator, partial curve, poor fit] | – |
| CCOC(=O)C(C)(C)N(Cc1ccccc1C)S(=O)(=O)c1ccc(Cl)c([N+](=O)[O-])c1 | inactive | – |
| CNC(=O)C(=O)Nc1c(C)cc(C)cc1C | inactive | – |
| CCc1cccc(C)c1NC(=O)Cn1nc(C)n2cccc2c1=O | inconclusive: 89.1 µM [activator, partial curve, poor fit] | – |
| Cc1nn(-c2ccccc2)c(C)c1/C=N/NC(=O)c1cc(C(C)(C)C)[nH]n1 | – | inconclusive: -32.6% [activator] |
| O=C(N=Nc1c(O)[nH]c2ccc(Br)cc12)c1ccccc1-n1cccc1 | inactive | – |

Record cards, from the list above. Order of values: Potency | activation
COc1ccccc1Nc1nc(N)nc(CN2CCC(Cc3ccccc3)CC2)n1 as listed: inactive | –
Cc1cc(NC(=O)CSc2nc(C)c(C)n2CC(C)C)no1 as listed: – | inconclusive: 32.4% [activator]
Cc1cc2c(OCC(O)CNCc3ccco3)cccc2[nH]1 (centres undefined) as listed: inconclusive: 28.2 µM [activator, partial curve, poor fit] | –
Clc1ccc(Br)c(-c2nc3ccccc3[nH]2)c1 as listed: inactive | –

Further records follow.

| SMILES | Potency | activation |
| --- | --- | --- |
| COC(=O)c1cccc(NC2=NS(=O)(=O)c3ccccc32)c1 | inactive | – |
| O=C(c1ccccc1Br)N(Cc1ccco1)Cc1ccco1 | inactive | – |
| Cc1ccccc1-n1c(=O)cc(NCC2CCCO2)[nH]c1=O (centres undefined) | inconclusive: 7.08 µM [activator, single point] | – |
| O=C(CN1C(=O)CSc2ccc(S(=O)(=O)N3CCOCC3)cc21)NCc1cccnc1 | – | inconclusive: 44.5% [activator] |
| CCOc1ccc(NC(=O)c2cccc(OC(=S)N3CCC(C)CC3)c2)cc1 | inactive | – |
| O=C(Cc1cccs1)NC1CC(=O)N(c2ccc(F)cc2)C1 (centres undefined) | – | inconclusive: 54.8% [activator] |
| O=C(Nc1cccc(S(=O)(=O)NC2=NCCC2)c1)c1ccc(=O)[nH]c1 | inconclusive: 126 µM [activator, single point] | – |
| CC1(C(=O)NS(=O)(=O)c2ccccc2Cl)CCN1C(=O)Cc1cccc2ccccc12 (centres undefined) | inconclusive: 2.24 µM [activator, full curve, poor fit] | – |
| CCOC(=O)c1[nH]cnc1C(=O)NC1CCN(C(=O)OC(C)(C)C)CC1 | inactive | – |
| O=C(O)c1ccc(CSc2nnc(-c3cccnc3)n2-c2ccc(Br)cc2)cc1 | inconclusive: 35.5 µM [activator, partial curve, poor fit] | – |
| O=C(CN1CCN(CN2C(=O)NC3(CCCCCC3)C2=O)CC1)Nc1ccc(F)cc1 | inconclusive: 112 µM [activator, single point] | – |
| NC(=O)COC(=O)CC12CC3CC(CC(Br)(C3)C1)C2 | inconclusive: 126 µM [activator, single point] | – |
| CS(=O)(=O)N(CC(=O)NCc1ccco1)c1ccc(Cl)cc1Cl | – | inconclusive: 18.5% [activator] |
| COC(=O)c1ccc(N2CCN(C)CC2)c(NC(=O)COc2ccc(OC)cc2)c1 | inconclusive: 56.2 µM [activator, partial curve, poor fit] | – |
| COC(=O)CN1C(=O)[C@H]2[C@@H](c3ccc(C)o3)N3C(=O)CN(Cc4ccccc4)C(=O)[C@@]3(Cc3ccccc3)[C@H]2C1=O | inconclusive: 44.7 µM [activator, partial curve, poor fit] | – |
| CCN1CSC(=S)N(Cc2ccc(OC)cc2)C1 | inconclusive: 126 µM [activator, single point] | – |
| CCN(CC)CCOC(=O)c1ccc(N=CC2=C(O)CC(C)(C)CC2=O)cc1 | inconclusive: 50.1 µM [activator, partial curve, poor fit] | – |
| CC(C)(C)OC(=O)[C@H](Cc1ccccc1)NC(=O)c1[nH]cnc1C(=O)Nc1cccc(Cl)c1 | inactive | – |
| CN(C)CCN(Cc1ccco1)C(=O)c1cc2c(s1)-c1ccccc1OC2 | inconclusive: 12.6 µM [activator, partial curve] | – |
| O=C(NC(Cc1ccccc1)C(=O)N1CCCC1C(=O)O)c1ccccc1 (stereo not drawn) (Bz-Phe-Pro-OH; configuration not given here) | inconclusive: 56.2 µM [activator, single point] | – |
| COc1cccc(C(NC(C)=O)c2nc(-c3cccc(NC(C)=O)c3)cs2)c1 (centres undefined) | – | inconclusive: -8.33% [activator] |
| COC(=O)C(C)Oc1cc(OC(C)C(=O)OC)c2c(C)c(Cl)c(=O)oc2c1 (centres undefined) | inactive | – |
| CCC(CC)C(=O)N1N=C(c2ccc(NS(C)(=O)=O)cc2)CC1c1ccccc1 (centres undefined) | inactive | – |

| SMILES | Potency | activation |
| --- | --- | --- |
| CC1(C(=O)NCc2ccco2)Cc2c(-c3cccc(C(F)(F)F)c3)ccnc2O1 (centres undefined) | inactive | – |
| Cc1ccc(NC2=C(NC(=O)c3ccccc3)C(=O)c3ccccc3C2=O)cc1Cl | inactive | – |
| CCOC(=O)C1=C(O)/C(=C/c2ccc(-c3ccccc3C(=O)O)o2)SC1=Nc1ccc(C)cc1 | inconclusive: 126 µM [activator, single point] | – |
| NNC(=O)c1cc2ccccc2[nH]1 | inconclusive: 70.8 µM [activator, partial curve, poor fit] | – |
| Cn1ncc2c(N3CCOCC3)ncnc21 | inconclusive: 0.199 µM [activator, full curve, poor fit] | – |
| Cc1ccc(NC(=O)CNC(=O)N2CC(=O)Nc3ccccc32)cc1F | – | inconclusive: 33.2% [activator] |
| Cc1ccc(C(NC(=O)C2CCN(CCOc3ccc(Cl)cc3)CC2)c2ccccn2)cc1 (centres undefined) | inactive | – |
| CC(=O)c1ccc(NC(=O)C(NC(=O)c2ccccc2)=C(C)C)cc1 | inconclusive: 50.1 µM [activator, partial curve, poor fit] | – |
| Cc1cc(C(=O)NCc2ccccc2)no1 | inconclusive: 35.5 µM [activator, single point] | – |
| COCCCNC(=O)c1ccc(Cn2c(=O)c3ccccc3n(CC(=O)Nc3c(C)cccc3C)c2=O)cc1 | – | inconclusive: 58.4% [activator] |
| CCCC(CCC)C(=O)Nc1cccc(-c2nc3cccnc3s2)c1C | – | inconclusive: 48.8% [activator] |
| CCOC(=O)c1ccc(NC(=O)c2cnn(-c3ccc(C)cc3C)c2C2CCN(C(=O)OC(C)(C)C)CC2)cc1 | inactive | – |
| COc1ccc(NS(=O)(=O)c2ccc3c(c2)CCC(=O)N3)c(OC)c1 | inconclusive: 39.8 µM [activator, single point] | – |
| O=C(NCCC1=CCCCC1)C(=O)NCC1OCCCN1S(=O)(=O)c1ccccc1 (centres undefined) | inactive | – |
| CCOC(=O)c1scc(-c2ccccc2)c1S(=O)(=O)Nc1ccc(N(C)C)cc1 | inactive | – |
| CC(C)CN(C(=O)CN1CCN(c2ccccc2O)CC1)c1c(N)n(CC(C)C)c(=O)[nH]c1=O | inactive | – |
| Cc1c(/C=N/O)c2ccccn2c1C=O | inactive | – |
| Cc1cc(C)nc(NS(=O)(=O)c2ccc(NC(=O)c3ccccc3O)cc2)n1 | inconclusive: 17.8 µM [activator, partial curve, poor fit] | – |
| Cc1ccccc1CN1CCN(S(C)(=O)=O)CC1 | – | inconclusive: 61.1% [activator] [at 57.5 µM] |
| COc1ccc(OC)c(C2C3=C(N=C4SCC(=O)N42)c2ccccc2CC3)c1 (centres undefined) | inconclusive: 7.08 µM [activator, single point] | – |
| O=C(O)c1cnn2c(C(F)(F)F)cc(-c3ccccc3)nc12 | – | inconclusive: 14.9% [activator] |
| CCOC(=O)c1c(NC(=O)COc2cc(C)ccc2C(C)C)sc(C)c1C | inconclusive: 100 µM [activator, partial curve, poor fit] | – |
| CCCN(CCC)CCNC(=O)C1c2ccccc2C(=O)N2CCc3ccccc3C12 (centres undefined) | inconclusive: 126 µM [activator, single point] | – |
